At least one compound was matched to its structure with a doubt left.
System: HBc antigen
Test: Measurement of the amount of HBc antigen (sandwich immunoassay, luminescence)
Assay type: in vivo, HBV patient
Conditions: serum of patients that received lamivudine treatment, some specimens
From the text: Three monoclonal antibodies HB44 (recognition site: amino acids 31-49), HB61 (recognition site: amino acids 131-140) and HB114 (recognition site: amino acids 1-81) that react both HBc antigen and HBe antigen were coated and immobilized to a microtiter plate. After washing with PBS, it was blocked with a solution containing casein and, after removing the solution, it was dried.
Fifty μl of the pretreatment solution (15% sodium dodecyl sulfate [SDS], 3% CHAPS, 1% hexadecyltrimethyl ammonium bromide) was mixed with 100 μl of the sample (serum, plasma etc.) and treated at 70° C. for 30 minutes.
To each antibody-immobilized well, 100 μl of the reaction buffer (pH 8.0) and 50 μl of the pretreated sample were added, and the plate was reacted under gentle stirring at room temperature for 2 hours. […]
After washing the wells, 100 μl of the CDP Star with Emerald II (Applied Biosystems) was added, and the intensity of luminescence after reacting at room temperature for 20 minutes was measured using a microtiter plate luminometer. It was compared to the intensity of luminescence of the standard antigen and the concentration of HBc antigen in the sample was calculated (Table 1).

Nc1ccn([C@@H]2CS[C@H](CO)O2)c(=O)n1 [lamivudine]
HBcAg in the patient serum: though decreased, cannot be completely eliminated
